Results as given in ChEMBL document CHEMBL4715803, “Synthetic Studies of Neoclerodane Diterpenes from Salvia divinorum: Identification of a Potent and Centrally Acting μ Opioid Analgesic with Reduced Abuse Liability” (J Med Chem, 2016).

Test system: Mus musculus
Test: Antinociceptive activity in male B6-SJL mouse administered subcutaneously daily for 9 days and measured on day 9 by warm water tail-flick assay

CN1CC[C@]23c4c5ccc(O)c4O[C@H]2[C@@H](O)C=C[C@H]3[C@H]1C5 [MORPHINE]
EC50: 11.6 mg/kg
